Experimental data reported in patent US9809640B2 (priority 2010, dated 2017).
Some peptides are written in HELM: one residue between dots, names in brackets for other building blocks, links after the first $.

Experiment: peptide synthesis
Conditions: conjugation step, HPLC

PEPTIDE1{[ac].R.Q.I.K.I.W.F.Q.N.R.R.M.K.W.K.K.C.L.R.V.R.L.A.S.H.L.R.K.L.R.K.R.L.L.[am]}|PEPTIDE2{[ac].R.Q.I.K.I.W.F.Q.N.R.R.M.K.W.K.K.C.L.R.V.R.L.A.S.H.L.R.K.L.R.K.R.L.L.[am]}|CHEM1{[BMOE]}$PEPTIDE1,CHEM1,18:R3-1:R1|PEPTIDE2,CHEM1,18:R3-1:R2$$$V2.0
final purity (method not given): 98%
